# According to patent US20210315886A1, “IMIDAZOTETRAZINE COMPOUNDS” (The Board of Trustees of the University of Illinois, priority 2018, published 2021):
# For some assays here: For at least one compound, name, drawing or mass did not settle the structure. Some results were stated once for a whole list of compounds, not compound by compound.
# Legend:
# [1] = test system: panel of human GBM cell lines; experiment: Anticancer activity against panel of human GBM cell lines; assay type: cell-based; settings: all tested cell lines, even in the absence of MGMT
# Procedure: Anticancer activity of C8 substituted imidazotetrazines. With a suite of imidazotetrazines in hand, each compound was evaluated against a panel of human GBM cell lines (Table 1a, Table 1b).
# [2] = test system: O^6-methylguanine adducts in U87 cells; experiment: O6-methyldeoxyguanosine quantitation in U87 cells; assay type: cell-based, human; settings: 100 or 1000 μM, 8 hours
Compound,fold less potent than TMZ [1] [fold],concentration of O^6-methylated deoxyguanosine [2]
Cn1nnc2c(C(=O)O)ncn2c1=O [Compound 3],> 7,–
"Cn1nnc2c(C(N)=O)ncn2c1=O [TMZ, temozolomide, reference compound]",–,Dose dependent increases
